Results on 65 molecules are retold here after PubChem BioAssay AID2685 (National Center for Advancing Translational Sciences (NCATS), 2010).

Some of the results follow. Further columns of the screen follow, without active or inactive calls. The list favours compounds with an active or inconclusive main result. The note in brackets gives the kind of curve behind each potency; many fits are weak.

A short description of the assay: qHTS Assay for Lipid Storage Modulators in Drosophila S3 Cells.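 On cell number change: cells counted by Cell Tracker Red CMTPX staining in the red channel.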 The conditions noted are these: BODIPY lipid droplet fluorescence, 18-24 h; for cell number change: measured here: cell count max response, cells fed with added oleic acid. Put shortly: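 Drosophila S3 cells got compounds at several concentrations plus oleic acid (400 uM solution). Laser-scanning cytometry with 488 nm excitation read lipid droplets at 500-530 nm and cells at 575-640 nm. Percent activity was relative to 20 uM Triacsin C.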
For orientation: Quantitative high-throughput screening tests each substance at several concentrations.

Where [1] appears, read: measured here: lipid fluorescence (Fed channel) AC50, cells fed with added oleic acid.
Setting [2] is: measured here: cell number channel AC50, cells fed with added oleic acid.

The AC50 is the concentration giving half of the maximal activity seen. Low values mean greater potency, high ones weaker potency. Take `COc1cccc(-c2nnc(NC(=O)c3ccc(S(=O)(=O)N4CCOCC4)cc3)o2)c1`: the cell number change is -4.32%. For the same molecule, the AC50 under setting [1] was 2.59 µM [rising, full curve, poor fit]. Regarding `CCCCc1nc(Cl)c(CO)n1Cc1ccc(-c2ccccc2-c2nn[nH]n2)cc1`, the cell number change is 15.5%. For the molecule `O=C1CN(C(=O)c2cc3ccccc3oc2=O)C(c2ccccc2)c2cc(F)ccc2N1` (centres undefined), the cell number change was -0.929%. Also, under setting [1], the concentration at half-maximal activity (AC50) was 0.58 µM [rising, single point].

`CCCC(=O)Nc1ccc(NC(=O)Cc2ccccc2)cn1`: the cell number change turned out to be 38.6%. Besides, the AC50 under setting [2] is 8.2 µM [rising, single point]. Turning to `Cc1ccc(-c2nn3c(C)nnc3c3ccccc23)cc1S(=O)(=O)NCCO`, the cell number change was determined as 1.29%. For the molecule `CCOC(=O)NC(=S)Nc1ccc(C(C)(C)C)cc1Br`, the cell number change is -29.1%. In addition, the concentration at half-maximal activity (AC50) under setting [1] is 23.1 µM [falling, single point]. `Cc1cc(C(=O)NCC(C)C)c2ccccc2n1`: the cell number change is 44.2%. On to `CCOC(=O)c1[nH]c(C)c(C(=O)OCC(=O)N(Cc2ccccc2)C(C)C)c1C`, for which the cell number change was 2.82%. In addition, the concentration at half-maximal activity (AC50) under setting [1] is 29.1 µM [falling, single point]. For the molecule `CC(=O)Nc1ccc(S(=O)(=O)NCC2CCC(C(=O)NCCCOC(C)C)CC2)cc1` (centres undefined), under setting [1], the AC50 is 29.1 µM [rising, single point]. Take `Cc1ccc(-n2sc3ccccc3c2=O)cc1S(=O)(=O)N1CCCCC1`: the cell number change was -208%. The AC50 under setting [2] is 23.1 µM [falling, single point]. For `O=C(CCc1ccccc1)NCc1ccc(F)cc1`, the cell number change was 24.2%. The concentration at half-maximal activity (AC50) under setting [1] was 29.1 µM [rising, single point].

For `O=C(O)CN(Cc1ccco1)S(=O)(=O)c1ccccc1`, the cell number change is -32.5%. Under setting [2], the concentration at half-maximal activity (AC50) was 29.1 µM [falling, single point]. Besides, under setting [1], the half-maximal activity concentration (AC50) is 18.4 µM [falling, partial curve].

Take `CCCN1C(=O)c2cc(C(=O)NCc3cccs3)ccc2C1O` (centres undefined): the cell number change was -15.2%.

With `COc1ccc(S(=O)(=O)NCCSc2ccc(C)cc2)cc1OC`, the cell number change was -0.129%. Regarding `CCCCn1c(N)c(N(CC(C)C)C(=O)C2=COCCO2)c(=O)[nH]c1=O`, the cell number change was -0.58%. Also, the AC50 under setting [1] was 1.84 µM [falling, single point]. In the case of `COC(=O)C1=C(C)N(CCc2c[nH]c3ccccc23)C(=O)/C1=C\N(C)C`, the concentration at half-maximal activity (AC50) under setting [1] is 1.46 µM [rising, full curve, poor fit].

Consider `O=C(Nc1ccc(-n2ccc(C(F)(F)F)n2)cc1)c1cccs1`, for which the cell number change is -14.9%. Also, under setting [1], the AC50 is 29.1 µM [falling, single point]. For the molecule `O=C(NCc1ccccc1)c1ccc(CN2CCOCC2)cc1`, the cell number change is -7.54%. Under setting [1], the AC50 was 16.4 µM [falling, single point]. On to `CCCOc1ccc(S(=O)(=O)n2cc(Br)c(=O)[nH]c2=O)cc1`, for which the cell number change is 2.39%. For the same molecule, the AC50 under setting [2] is 2.31 µM [falling, partial curve, poor fit]. The AC50 under setting [1] is 0.58 µM [falling, partial curve, poor fit].

Consider `Cc1ccc(C(=O)Nc2ccc(N3CCCC3)cc2)c(C)c1`, for which the cell number change was found to be 12.6%. The half-maximal activity concentration (AC50) under setting [1] is 4.61 µM [rising, single point]. `CC(=O)c1ccc(N2CCN(C(=O)c3ccc4c(c3)OCO4)CC2)cc1`: under setting [1], the AC50 is 3.98 µM [rising, full curve]. Still for that read-out and setting: then `Cc1cc(Cl)ccc1OCC(=O)NC(=S)Nc1ccccc1N1CCOCC1`, with 2.91 µM [rising, single point].

Turning to `CC(C)(C)C(=O)/C(=C/c1ccc(Cl)cc1)n1cncn1`, the cell number change is -28.2%. As to `COC(=O)/C=C1/SC(=Nc2ccc(C)cc2C)NC1=O`, the cell number change was 15.8%. Also, the AC50 under setting [1] was 20.6 µM [rising, single point]. For the molecule `CCOCCOC(=O)c1[nH]c2c(c1C)C(=O)CC(c1ccc(N(C)C)cc1)C2` (centres undefined), the cell number change was -1.73%. For the same molecule, the concentration at half-maximal activity (AC50) under setting [1] is 18.4 µM [falling, single point].

In the case of `Cc1ccc(CNC(=O)c2cc(-c3cc(C)cc(C)c3O)n[nH]2)cc1`, the cell number change was -29.8%. Also, the AC50 under setting [1] was 29.1 µM [falling, single point]. On to `COc1cccc(-n2c(C)nc3c(cnn3-c3ccc(Cl)cc3)c2=O)c1`, for which the AC50 runs as follows: under setting [2], 3.66 µM [rising, partial curve]; under setting [1], 3.26 µM [rising, partial curve]. As for `CN(C#N)c1nccc(-c2cccs2)n1`, the cell number change came out at 9.26%. Besides, under setting [2], the AC50 is 3.26 µM [falling, single point]. The AC50 under setting [1] is 5.17 µM [falling, single point]. With `CCc1ccc(OCC2c3cc(OC)c(OC)cc3CCN2C(=S)NC)cc1` (centres undefined), the cell number change was found to be 12.6%.

Take `COC(=O)C(Cc1c[nH]c2ccccc12)NC(=O)C1CC1` (centres undefined): the cell number change was -8.4%. Turning to `Cc1nn(C)c(C)c1/C=C(/C(=O)C(C)(C)C)n1cncn1`, the cell number change worked out at 41.6%. Further, the AC50 under setting [2] was 5.17 µM [rising, full curve, poor fit]. `CC(C)(C)c1ccc(-c2n[nH]c(=S)n2/N=C/c2ccncc2)cc1`: the cell number change is -56.8%. For the same molecule, the AC50 under setting [2] is 29.1 µM [falling, single point]. With `CC(=O)OCC(=O)NCc1ccc2c(c1)OCO2`, the cell number change amounted to 12.8%. Besides, under setting [1], the AC50 is 6.51 µM [falling, single point]. On to `Cc1cnc(NC(=O)c2ccc(F)c(S(=O)(=O)N3CCOCC3)c2)s1`, for which the cell number change was -8.69%. The half-maximal activity concentration (AC50) under setting [1] is 3.66 µM [rising, partial curve, poor fit]. In the case of `CCN(CC(=O)NCc1ccc(F)cc1)CC(=O)NC1CCCC1`, the cell number change is -5.71%. In the case of `Cc1c(NS(=O)(=O)c2ccc(N)cc2)c(=O)n(-c2ccccc2)n1C`, the cell number change stood at 40.5%. The same measure, in the same setting: the same measure for `CN1CCC(=O)N([C@H](CC#N)c2ccccc2)CC1`: 16.8%. Consider `c1ccc(-[n+]2nc(Nc3cccc4ccccc34)sc2-c2c3ccccc3cc3ccccc23)cc1`, for which the cell number change is -87.3%. For the same molecule, under setting [2], the concentration at half-maximal activity (AC50) is 5.17 µM [falling, full curve]. The half-maximal activity concentration (AC50) under setting [1] is 14.6 µM [falling, partial curve, poor fit]. Turning to `COC(=O)C1CCCN1S(=O)(=O)c1ccccc1NC(=O)c1cc(OC)c(OC)c(OC)c1` (centres undefined), the cell number change is -25.6%. In addition, the AC50 under setting [1] was 20.6 µM [falling, single point].

As for `CCCCNS(=O)(=O)c1ccc(OC)c2ncccc12`, the AC50 under setting [2] is 2.59 µM [rising, single point]. On to `COCCNc1nc(C(C)(C)C)nc2c1nnn2Cc1ccccc1Cl`, for which, under setting [1], the AC50 is 2.91 µM [rising, partial curve]. For `Cc1oc2ccc(Br)cc2c(=O)c1-c1nn[nH]n1`, the cell number change worked out at 22.2%. Moreover, under setting [1], the AC50 is 14.6 µM [rising, partial curve]. Regarding `OC1(c2cccc(C(F)(F)F)c2)CCNCC1`, the cell number change was 74.5%. Also, the AC50 under setting [2] is 5.8 µM [falling, partial curve]. Consider `NC(=O)c1ccccc1NC(=O)CC12CC3CC(CC(Br)(C3)C1)C2`, for which the AC50 under setting [1] is 0.82 µM [falling, full curve]. On to `CCn1c(=O)c(C(C)=O)nc2ccccc21`, for which the cell number change is 69%. Also, the concentration at half-maximal activity (AC50) under setting [2] is 29.1 µM [rising, single point]. Further, the half-maximal activity concentration (AC50) under setting [1] was 7.31 µM [rising, partial curve, poor fit]. Take `CCOc1ccccc1NC(=O)CSc1nnnn1-c1ccccc1`: the AC50 is 0.651 µM [rising, single point] under setting [2] and 6.51 µM [rising, partial curve] under setting [1]. `CC(c1ccccc1)N1CCn2c(nc3cc(NC(=O)c4cccs4)ccc32)C1` (centres undefined): the cell number change was found to be 20.7%. In addition, the half-maximal activity concentration (AC50) under setting [1] was 13 µM [rising, partial curve]. For the molecule `COC(=O)c1[nH]c2ccc(F)cc2c1NC(=O)Nc1ccc(OC)cc1`, the cell number change was -16.4%. Under setting [1], the AC50 was 29.1 µM [falling, single point]. In the case of `CCCCN1CCN=C1Nc1ccccc1`, the cell number change was -0.599%. Also, the AC50 under setting [1] was 16.4 µM [rising, partial curve]. On to `COc1ccc(-c2noc(CN(C(=O)c3ccoc3C)C(C)C)n2)cc1`, for which the cell number change was 9.57%. In the case of `COc1cccc(-n2c(=O)c3sccc3n(CC(=O)NC3CCCC3)c2=O)c1`, the cell number change is 10.1%. Under setting [1], the AC50 was 0.146 µM [rising, single point].

Regarding `Brc1cccc(-c2nnc3sc(CNC4CCCC4)cn23)c1`, the cell number change worked out at 11.3%. In the case of `Cc1c(C(=O)O)oc2ccc(S(=O)(=O)NCc3ccccc3)cc12`, the cell number change turned out to be 1.65%. The half-maximal activity concentration (AC50) under setting [1] is 0.461 µM [rising, single point]. Regarding `Cn1nnnc1Sc1ncnc2scc(-c3ccc(C#N)cc3)c12`, the cell number change was -14.9%. Under setting [1], the half-maximal activity concentration (AC50) was 0.00461 µM [falling, full curve, poor fit]. Regarding `O=C(CN1C(=O)NC2(CCCCC2)C1=O)N1CCN(c2ncccn2)CC1`, the cell number change is -4.84%. Moreover, under setting [1], the AC50 was 0.92 µM [rising, full curve, poor fit]. Regarding `CCOC(=O)CN(C(=O)CN1CCOCC1)c1ccc(Br)cc1`, the cell number change turned out to be 1.83%. Also, under setting [1], the AC50 is 8.2 µM [rising, partial curve]. `COc1ccc(C)cc1NC(=O)C(c1ccccc1)N1CCNC(=O)C1` (centres undefined): the cell number change came out at 23.4%. Besides, the half-maximal activity concentration (AC50) under setting [1] was 0.00461 µM [rising, full curve, poor fit]. For `CCOc1ccccc1CNC(=O)C1CCN(c2nn3c(=O)cc(C)nc3s2)CC1`, the cell number change was -11.2%. Besides, the AC50 under setting [1] was 6.51 µM [falling, single point]. Take `Cc1ccc(C(=O)NCc2ccccn2)cc1NC1=NC2CS(=O)(=O)CC2S1` (centres undefined): the cell number change was 37.8%.

Turning to `CCc1nnc(NS(=O)(=O)c2ccc(NC(=S)NC(=O)c3ccc(Br)cc3)cc2)s1`, the cell number change is 5.99%. Also, the concentration at half-maximal activity (AC50) under setting [2] is 6.51 µM [rising, single point]. As to `COc1ccccc1CNC(=O)c1cc2c(s1)CS(=O)(=O)C2`, the cell number change was -1.39%. Under setting [2], the half-maximal activity concentration (AC50) was 0.651 µM [falling, full curve, poor fit]. The AC50 under setting [1] was 1.16 µM [falling, full curve]. Take `O=C(c1ccccc1)N1CCN(CC#CC2(O)CCCCC2)CC1`: the cell number change came out at 2.61%. Also, under setting [2], the AC50 is 6.51 µM [rising, single point]. On to `CC(=O)Nc1ccc(NC(=O)C2CCCCN2S(=O)(=O)c2ccc(C(C)(C)C)cc2)cc1` (centres undefined), for which the cell number change was found to be 10.8%. For the same molecule, the AC50 under setting [1] was 11.6 µM [falling, single point].

Take `COc1ccccc1-c1c(C)nn2c(N3CCC(C)CC3)cc(C)nc12`: the cell number change is 10%. Turning to `C/C(=N/NS(=O)(=O)c1ccc(C)cc1)c1c[nH]c2ccccc12`, the cell number change is 0.495%. Also, under setting [1], the concentration at half-maximal activity (AC50) is 6.51 µM [rising, single point].
